# Some of the results follow. The main result of the screen is listed elsewhere. These columns were measured beside it and carry no call. Most of these compounds were active or inconclusive in the main read-out, so they are no random draw. Potencies come from curve fits of mixed quality, noted in brackets.
# Test: IkB Signaling
# Settings: ABC-DLBCL IkBa-CBG/CBR dual luciferase ratio (green luciferase fused to IkBa over red control in OCI-Ly3 lymphoma cells), 4 h
# Excerpt: NIH Molecular Libraries Screening Centers Network [MLSCN]
# NIH Chemical Genomics Center [NCGC]
# Nuclear factor kappa-B (NF-kappa-B) plays an important role in normal B cell development and survival. Diffuse large B cell lymphoma (DLBCL) is the most commonly observed type of non-Hodgkin's lymphoma. Gene expression analysis has identified an activated B cell-like subtype of DLBCL (ABC-DLBCL) which expresses known NF-kappa-B target genes. […] However, targets upstream of IKK have been largely unexplored and so nodes upstream of IKK in the NF-kappa-B pathway remain untested due to the lack of chemical probes.
# A cell-sensor assay for I-kappa-B-alpha stabilization was developed with NIH investigator Dr. R. Eric Davis in Dr. Louis M. Staudt's laboratory. The assay uses green (CBG68) and red (CBR) emitting beetle luciferases [Chroma-Glo(TM) developed by Promega Corp.] where the green luciferase is fused to I-kappa-B-alpha and the red luciferase is present in its native state. Both luciferase genes are stably present in the OCI-Ly3 human ABC DLBCL cell line, but their expression is under the control of tetracycline-inducible promoters. Following the addition of doxycycline to induce expression of the luciferases, the green luminescence in control cultures rises only slowly because the CBG fusion partner I-kappa-B-alpha is targeted by IKK activity for rapid degradation. In contrast, green luminescence rises rapidly in the presence of proteasome inhibitors or IKK inhibitors. The rise in red luminescence of CBR is not affected by proteasome or IKK inhibitors, and serves as normalization for cell number and nonspecific effects. Compounds were screened as a concentration-titration series that ranged from 57 uM to 0.7 nM.
# NCGC Assay Protocol Summary:
# Cells were seeded in 1536-well plates at 5000 cells/3ul in IMDM medium containing 0.5% FBS, w/o phenol red, L-glutamine, 25 mM HEPES, 3 mg/ml sodium bicarbonate. After centrifugation for 1 min. at 1000 rpm, 23 nl of compounds or DMSO were delivered to each well using a pin tool. Then 1ul 80ng/ml doxycycline was dispensed into white solid 1536-well plates and the plates were incubated at 37C/5% C02 in a cell incubator for 4 hrs. Then 4 ul Chroma-Glo luminescent substrate mix (Promega) was added to each well. The plate was incubated at R.T. for 10-15 min. The plates were measured on a ViewLux plate reader for green luminescence (540/20 nm filter) and red luminescence (618/8 nm filter). The green and red luminescent signals were corrected for red and green luminescence filter overlap using previously determined filter calibration constants (determined using the procedure outlined in the Promega Technical Manual). The %Activity was determined from the ratio of corrected green/red luminescent values. Green luminescent and ratio %Activity was determined by normalizing to the difference in signal between basal cells (0% Activity) and cells incubated with 10 uM of the proteasome inhibitor MG-132 (100% Activity). Red luminescent %Activity was normalized to the difference between red luminesence in basal cells (0%Activity) and zero luminescence (-100% Activity).
# Concentration-response curves were fitted to the signals arising from the green luminescence (I-kappa-B-alpha-luciferase fusion; IkB-luc) and the red luminescence (unfused luciferase; luc) as well as the calculated ratio. The concentration-effect curves were then classified based on curve quality (r2), response magnitude and degree of measured activity. Compounds were then categorized based on their concentration-response curves for all three datasets (Ikb-luc, luc and ratio).
# Keywords: IKK, I-kappa-B, IkB, IkBa, cytotoxicity, luminescence, MLSMR, MLSCN, NIH Roadmap, qHTS, NCGC
# [1] = measured here: control luc red channel unless noted
structure (smiles),measurement,setting,value
Cc1ccc(NC(=O)C2CCN(S(=O)(=O)c3ccc4c(c3)CCCN4C(=O)C3CCC3)CC2)cc1,AC50,[1],"39.8 µM [falling, single point]"
O=C(NCCCN1CCCCC1)c1[nH]c2ccccc2c1Sc1ccc(Cl)cc1,AC50,[1],"12.6 µM [falling, partial curve, poor fit]"
Cc1oc(-c2ccc3c(c2)OCCO3)cc1C(=O)NC(CCC(=O)O)C(=O)O (stereo unspecified),AC50,measured here: IkB-luc green channel,"0.398 µM [falling, partial curve]"
same,AC50,measured here: control luc red channel,"20 µM [falling, partial curve]"
Cc1cc(C)nc(NS(=O)(=O)c2ccc(NC(=O)c3nc(SC(C)C)ncc3Cl)cc2)n1,AC50,[1],"12.6 µM [falling, partial curve, poor fit]"
Cc1c(Cl)cccc1-n1ncc(C(=O)N2CCC(C)CC2)c1C1CCN(C(=O)OC(C)(C)C)CC1,AC50,[1],"12.6 µM [falling, partial curve]"
COc1ccc(NC(=O)CSc2nc(-c3ccccc3)[nH]c2-c2ccccc2)cc1OC,AC50,[1],"25.1 µM [falling, single point]"
COc1ccccc1-n1c(SCC(=O)N2CCOCC2)nc(O)c(Cc2ccccc2)c1=O,AC50,[1],"12.6 µM [falling, partial curve]"
CC(C)C(NS(=O)(=O)c1ccc2c(c1)oc(=O)n2C)C(=O)NCc1ccccc1 (stereo unspecified),AC50,[1],"0.0251 µM [falling, full curve, poor fit]"
CC(=O)c1ccc(N2CCN(C(=O)c3cc4c(s3)-c3ccccc3OC4)CC2)cc1,AC50,[1],"25.1 µM [falling, single point]"
N#Cc1c(NC(=O)CCn2cnc3ccccc3c2=O)oc(-c2ccccc2)c1-c1ccccc1,AC50,[1],"5.01 µM [falling, full curve, poor fit]"
CCOC(=O)c1c(-c2ccccc2)csc1NC(=O)c1cc(-c2ccc(C)c(F)c2)on1,AC50,[1],"15.8 µM [falling, partial curve]"
O=C(NC1CCCCCC1)C1c2ccccc2C(=O)N1Cc1ccccc1Cl (stereo unspecified),AC50,[1],"1 µM [rising, full curve, poor fit]"
CCN(CC)S(=O)(=O)c1ccc2c(c1)N(CC(=O)N1CCN(c3ccc(Cl)cc3)CC1)C(=O)CO2,AC50,[1],"1.58 µM [rising, full curve, poor fit]"
Cc1ccc(-n2c3c(cc(C(=O)Nc4cccc(Cl)c4)c2=O)C(=O)CC(C)(C)C3)cc1,AC50,[1],"7.94 µM [rising, single point]"
Cc1ccc(Cl)cc1N1CCN(C(=O)CCCCCn2c(=O)[nH]c3ccccc3c2=O)CC1,AC50,[1],"20 µM [falling, partial curve]"
CCc1ccc(NC(=O)C2CCCN(S(=O)(=O)c3c(C)noc3/C=C/N(C)C)C2)cc1 (stereo unspecified),AC50,[1],"25.1 µM [falling, single point]"
COc1ccccc1N1CCN(Cc2ccc(OC)c3ccccc23)CC1,AC50,[1],"12.6 µM [falling, partial curve]"
CC(C)OC(=O)c1cccnc1SCC(=O)Nc1ccc(C(F)(F)F)cc1Cl,AC50,[1],"7.94 µM [rising, full curve]"
O=C(c1ccco1)[C@@H]1[C@@H]2C(=O)N(c3ccc(F)cc3)C(=O)[C@@H]2C2c3ccccc3C=CN21 (stereo partly specified),AC50,[1],"2 µM [falling, full curve]"
CCN1C(=O)c2ccccc2S(=O)(=O)c2ccc(C(=O)NCc3ccccc3Cl)cc21,AC50,[1],"25.1 µM [falling, single point]"
COc1cccc(CNC(=O)c2c(C)oc3nc(C)nc(N4CCOCC4)c23)c1,AC50,[1],"10 µM [falling, partial curve]"
CCOC(=O)C1CCN(C(=O)CSc2n[nH]c(-c3ccc(F)cc3)n2)CC1,AC50,[1],"31.6 µM [falling, single point]"
O=C(Cn1c(=O)oc2cc(S(=O)(=O)N3CCCC3)ccc21)NCc1ccc(F)cc1,AC50,[1],"0.398 µM [falling, single point]"
CCN(CC)c1ccc(NC(=O)CCCCCN2C(=O)c3ccccc3C2=O)cc1,AC50,[1],"15.8 µM [falling, partial curve]"
Cc1cc(C(=O)C(=O)Nc2nnc(C(C)C)s2)c(C)n1-c1ccccc1,AC50,[1],"7.94 µM [falling, partial curve]"
Cc1ccccc1NS(=O)(=O)c1ccc2[nH]c3c(c2c1)CCCCC3,AC50,[1],"31.6 µM [falling, single point]"
O=C(Nc1sc2c(c1C(=O)O)CCCCC2)c1ccco1,AC50,[1],"0.02 µM [falling, full curve]"
Cc1ccc(Cl)cc1N1CCN(C(=O)c2ccc3nc(N4CCC(C)CC4)sc3c2)CC1,AC50,[1],"10 µM [falling, partial curve]"
CCOc1ccccc1CNC(=O)CCn1ccc2cc(S(=O)(=O)N3CCCCC3)ccc21,AC50,[1],"15.8 µM [falling, partial curve]"
Cn1c(=O)c2sccc2n2c(CCCC(=O)Nc3ccc(Oc4ccc(Cl)cc4)cc3)nnc12,AC50,[1],"10 µM [falling, partial curve]"

# Reprinted at random: 2 entries already listed.
structure (smiles),measurement,setting,value
CCN(CC)c1ccc(NC(=O)CCCCCN2C(=O)c3ccccc3C2=O)cc1,AC50,[1],"15.8 µM [falling, partial curve]"
O=C(Cn1c(=O)oc2cc(S(=O)(=O)N3CCCC3)ccc21)NCc1ccc(F)cc1,AC50,[1],"0.398 µM [falling, single point]"

# — PubChem BioAssay AID445 (National Center for Advancing Translational Sciences (NCATS), 2006)
